Results are given in words; binding and its absence hold for the method and conditions named. Binding seen in cells or lysates may run through a third protein. Some results given as binding are weak or reduced against the parent protein; the word gives no strength.
Columns and labels:
Assay in all cases: pull-down; GST-Hax-1 domains D1-D5 on glutathione Sepharose 4B beads incubated with 2 mg SKOV3 lysate, 4 hours at 4°C; GST-lysis buffer 150 mM NaCl, 20 mM Tris pH 8.0, 1 mM MgCl2, 0.1% NP40, 10% glycerol; washed five times; immunoblot for Rac1 or cortactin; only the target purified
[1] = molecular target: GST-Hax-D1 (Hax-1 amino acids 1-56) (UniProt O00165)
[2] = molecular target: GST-Hax-D4 (Hax-1 amino acids 169-224) (UniProt O00165)
[3] = molecular target: GST-Hax-D3 (Hax-1 amino acids 113-168) (UniProt O00165)

Sequences of proteins named here, by UniProt entry; tags and fusion partners are left off.
UniProt Q14247: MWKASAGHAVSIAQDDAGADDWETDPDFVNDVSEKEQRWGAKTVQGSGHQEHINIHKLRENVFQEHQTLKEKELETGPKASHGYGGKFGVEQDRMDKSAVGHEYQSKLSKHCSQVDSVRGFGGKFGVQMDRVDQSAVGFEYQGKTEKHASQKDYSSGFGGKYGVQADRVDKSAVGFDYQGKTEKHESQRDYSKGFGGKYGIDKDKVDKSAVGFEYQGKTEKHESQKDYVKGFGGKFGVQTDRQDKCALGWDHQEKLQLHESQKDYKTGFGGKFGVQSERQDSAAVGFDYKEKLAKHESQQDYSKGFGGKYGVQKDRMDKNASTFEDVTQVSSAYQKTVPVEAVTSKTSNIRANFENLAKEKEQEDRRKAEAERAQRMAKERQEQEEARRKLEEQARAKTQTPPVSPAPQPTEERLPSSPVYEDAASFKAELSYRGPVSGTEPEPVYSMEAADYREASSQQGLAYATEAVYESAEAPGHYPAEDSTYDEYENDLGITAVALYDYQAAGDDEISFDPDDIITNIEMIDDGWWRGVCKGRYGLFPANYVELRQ

## cortactin (from UniProt Q14247 1-550)
[1]
  binding: binds
[2]
  binding: binds weakly
[3]
  binding: binds
